Data published in PubChem BioAssay (NCATS).
The hits were mostly taken out for another list; the other results follow. Results filed as inconclusive are left out. Active and inactive are the calls of the source. Unless noted, calls follow the shape of the dose curve; as a rule, active = well fitted curve in the direction sought with a large enough effect; inconclusive = small, poorly fitted or top-dose-only effect, or another doubt; inactive = no such curve, though single readings can be large; an effect the other way counts as inactive or inconclusive.

Legend:
[1] = molecular target: Mitogen-activated protein kinase 10 (Mus musculus) (UniProt Q61831); test: JNK3 AlphaScreen Assay (AID 530; active = well fitted curve in either direction with a large enough effect, not every such curve was filed as active;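 also: kinase came from lysate of stimulated human HepG2 cells; signal reports phosphorylation of biotinylated GST-cJun 1-79 at Ser73 with 10 µM ATP; % is scaled to controls: 0 for no effect and ±100 for the full control effect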); conditions: JNK3 lysate, c-Jun phosphorylation; at 11.4 µM (top of the series) unless noted
Outline: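 Room-temperature AlphaScreen kinase assay; pre-activated HepG2 lysate as JNK3 source, biotin-GST-cJun(1-79) substrate, 10 uM ATP, compound 15 min preincubation.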

[2] = Cell Viability - N2a (AID 540); conditions: N2a mouse neuroblastoma cell viability; at 92.2 µM (top of the series);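 also: cells exposed to compound for 40 h at 37 °C; plate controls were DMSO alone for no effect and tamoxifen control for full effect; nearly all actives have a fitted effect of over 45% in size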
Outline: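 First, 1500 N2a cells per well incubate 5 hr at 37 °C; next, compounds are added and incubated 40 hr at 37 °C; finally CellTiter-Glo is added and luminescence read after 20 min, with AC50 derived by Hill modeling.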

[3] = Cell Viability - NIH 3T3 (AID 541); conditions: NIH 3T3 cell viability, qHTS; at 92.2 µM (top of the series);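 also: cells exposed to compound for 40 hours; plate controls were DMSO alone for no effect and tamoxifen positive control for full effect; nearly all actives have a fitted effect of over 25% in size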
Outline: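 AC50 values reflect concentration-dependent loss of intracellular ATP in NIH 3T3 cells after 40 hr treatment in complete culture medium, quantified by luciferase-based luminescence.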

[4] = Cell Viability - HUV-EC-C (AID 542); conditions: HUV-EC-C endothelial cell viability, qHTS; at 92.2 µM (top of the series);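 also: cells exposed to compound for 40 hours; % is scaled to controls: 0 for no effect and ±100 for the full control effect; nearly all actives have a fitted effect of over 35% in size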
Outline: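 Decrease in cellular ATP, quantified by luciferase luminescence, reflects toxicity in normal human vascular endothelial HUV-EC-C cells given compound for 40 hr in complete culture medium. Values are AC50s from concentration-response curves.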

[5] = Cell Viability - H-4-II-E (AID 543); conditions: H-4-II-E rat hepatoma viability; at 92.2 µM (top of the series);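 also: cells exposed to compound for 40 hours; % is scaled to controls: 0 for no effect and ±100 for the full control effect; nearly all actives have a fitted effect of over 35% in size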
Outline: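 Here, cytotoxicity is measured in the rat hepatoma line H-4-II-E as loss of intracellular ATP after 40 hr compound treatment, detected by luciferase luminescence.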

[6] = Cell Viability - SH-SY5Y (AID 544); conditions: SH-SY5Y neuroblastoma cell viability; at 92.2 µM (top of the series);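 also: cells exposed to compound for 40 hours; 0% = DMSO alone and -100% = 100 µM tamoxifen; nearly all actives have a fitted effect of over 55% in size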
Outline: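 Cytotoxicity is scored as a concentration-dependent fall in intracellular ATP in human SH-SY5Y cells treated 40 hr in complete culture medium. Potency is expressed as AC50 from a Hill equation fit.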

[7] = Cell Viability - Renal Proximal Tubule (AID 545); conditions: renal proximal tubule cells viability, primary cells of rat origin; at 91.7 µM (top of the series);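 also: cells exposed to compound for 40 hours; 0% = DMSO only and -100% = 100 µM tamoxifen; nearly all actives have a fitted effect of over 40% in size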
Outline: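 Rat kidney proximal tubule cells, freshly isolated; 1000 cells/well, 5 hr settle, compound 40 hr 37 °C. CellTiter-Glo 20 min RT, luminescence read. AC50 by standard Hill fit.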

[8] = Cell Viability - Mesenchymal (AID 546); conditions: mesenchymal cells viability, qHTS; at 91.7 µM (top of the series);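 also: cells exposed to compound for 40 hours before reading; 0% = DMSO only and -100% = 100 µM tamoxifen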
Outline: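 AC50 values reflect the drop in intracellular ATP in a human kidney mesenchymal line derived from normal glomeruli. Treatment lasts 40 hr at 37 °C in complete medium, and the signal comes from CellTiter-Glo luminescence.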

[9] = Cell Viability - LYMP2-001 (AID 921); conditions: LYMP2-001 lymphoblastoid cell viability; at 92.2 µM (top of the series);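 also: 0% = DMSO only and full inhibition = tetraoctylammonium bromide control wells; nearly all actives have a fitted effect of over 70% in size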
Outline: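 CellTiter-Glo luminescence (intracellular ATP) after 24 hr compound exposure at 37 C, 2500 lymphoblastoid cells/well in complete medium. AC50 fitted with standard Hill equation; tetraoctylammonium bromide positive control.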

[10] = Cell Viability - LYMP1-002 - Assay at 16 hr (AID 948); conditions: LYMP1-002 lymphoblastoid cell viability; at 92.2 µM (top of the series);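 also: 0% = DMSO alone and full effect = 92 µM tetraoctylammonium bromide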
Outline: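 LYMP1-002 human lymphoblastoid cells, 2500/well; 5 hr 37 C; cpd 16 hr 37 C; CellTiter-Glo 30 min RT; luminescence (ATP). Concentration-response, Hill-fit AC50. Pos ctrl tetraoctylammonium bromide.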

[11] = Cell Viability - LYMP1-003 - Assay at 24 hr (AID 963); conditions: LYMP1-003 lymphoblastoid cell viability; at 92.2 µM (top of the series);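 also: plate controls were DMSO only for no effect and tetraoctylammonium bromide positive control for full effect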
Outline: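 Acute toxicity in LYMP1-003 lymphoblastoid cells: 24 hr compound treatment at 37 C, ATP measured with CellTiter-Glo after 30 min at room temperature. AC50 derived by fitting the Hill equation to qHTS titrations.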

[12] = Cell Viability - LYMP1-003 - Assay at 40 hr (AID 964); conditions: LYMP1-003 lymphoblastoid viability; at 92.2 µM (top of the series); also: % is scaled to controls: 0 for no effect and ±100 for the full control effect; nearly all actives have a fitted effect of over 60% in size
Outline: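 This qHTS cytotoxicity screen treats human lymphoblastoid cells (LYMP1-003) with compounds for 40 hr and quantifies cellular ATP via luciferase luminescence.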

[13] = Cell Viability - LYMP2-003 (AID 965); conditions: LYMP2-003 lymphoblastoid cell viability; at 92.2 µM (top of the series);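 also: cells exposed to compounds for 24 h before reading; 0% = DMSO only and full effect = 92 µM tetraoctylammonium bromide; nearly all actives have a fitted effect of over 50% in size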
Outline: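 CellTiter-Glo luminescence (cellular ATP) after 24 h compound exposure at 37 C in complete medium; 2500 cells/well, 5 h settling beforehand. Concentration-response fitted to standard Hill equation for AC50. Tetraoctylammonium bromide served as positive control.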

[14] = Cell Viability - LYMP2-004 (AID 966); conditions: LYMP2-004 lymphoblastoid cell viability, qHTS; at 92.2 µM (top of the series);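 also: plate controls were DMSO only for no effect and tetraoctylammonium bromide control for full effect; nearly all actives have a fitted effect of over 65% in size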
Outline: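 Acute toxicity is scored as a concentration-dependent drop in intracellular ATP, quantified by luciferase luminescence, in human lymphoblastoid cells exposed to compound for 24 hr. AC50 derives from Hill-equation modelling.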

[15] = Cell Viability - LYMP2-011 (AID 969); conditions: LYMP2-011 lymphoblastoid cells viability; at 92.2 µM (top of the series);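 also: 0% = DMSO only and full inhibition = 92 µM tetraoctylammonium bromide; nearly all actives have a fitted effect of over 60% in size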
Outline: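 Acute toxicity is scored as a concentration-dependent drop in intracellular ATP of a human lymphoblastoid line after 24 hr treatment. Values are AC50s modeled with the Hill equation.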

[16] = Cell Viability - LYMP2-013 (AID 970); conditions: LYMP2-013 lymphoblastoid cells viability; at 92.2 µM (top of the series);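 also: 0% = DMSO only and full inhibition = tetraoctylammonium bromide control; nearly all actives have a fitted effect of over 55% in size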
Outline: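 Acute toxicity was measured in human lymphoblastoid cells (2500/well) exposed to compound titrations for 24 hr, with ATP luminescence (CellTiter-Glo) as read-out and AC50 fitted by Hill equation.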

[17] = Cell Viability - LYMP2-017 (AID 972); conditions: LYMP2-017 lymphoblastoid cell viability; at 92.2 µM (top of the series);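 also: cells exposed to compound for 24 hours at 37 °C; % is scaled to controls: 0 for no effect and ±100 for the full control effect; nearly all actives have a fitted effect of over 55% in size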
Outline: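 Steps: plate 2500 lymphoblastoid cells per well; incubate 5 hr at 37 C; add compound across a concentration series and incubate 24 hr at 37 C; add CellTiter-Glo and read luminescence after 30 min at room temperature; fit Hill curves for AC50.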

[18] = Cell Viability - LYMP2-019 (AID 973); conditions: LYMP2-019 lymphoblastoid cell line viability; at 92.2 µM (top of the series);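 also: 0% = DMSO alone and full effect = 92 µM tetraoctylammonium bromide; nearly all actives have a fitted effect of over 55% in size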
[19] = Cell Viability - LYMP2-021 (AID 974); conditions: LYMP2-021 lymphoblastoid cells viability; at 92.2 µM (top of the series)
Outline: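 Concentration-response cytotoxicity in a human lymphoblastoid line: 24 hr treatment at 37 C in complete culture medium, tetraoctylammonium bromide as positive control, luminescent ATP quantitation as viability measure.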

[20] = Cell Viability - LYMP2-023 (AID 975); conditions: LYMP2-023 lymphoblastoid cell viability; at 92.2 µM (top of the series)
Outline: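 Concentration-dependent drop in intracellular ATP measures acute cytotoxicity in a human lymphoblastoid line treated for 24 hours in complete culture medium. AC50 values are taken from Hill-equation fits of qHTS data.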

[21] = Cell Viability - LYMP2-025 (AID 976); conditions: LYMP2-025 lymphoblastoid cell viability; at 92.2 µM (top of the series);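 also: plate controls were DMSO only for no effect and tetraoctylammonium bromide control for full effect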
Outline: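 In qHTS format, LYMP2-025 lymphoblastoid cells in complete culture medium received compound for 24 hr; ATP-based CellTiter-Glo signal gave viability, with AC50 derived by Hill equation.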

[22] = Cell Viability - LYMP2-002 (AID 977); conditions: LYMP2-002 lymphoblastoid cell viability, qHTS; at 92.2 µM (top of the series);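 also: plate controls were DMSO only for no effect and 92 µM tetraoctylammonium bromide for full effect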
Outline: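 Cytotoxicity is scored as concentration-dependent loss of cellular ATP in a human lymphoblastoid line after 24 hr compound treatment at 37 C. AC50 is obtained by modelling concentration-response data with the Hill equation.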

[23] = Cell Viability - LYMP2-006 (AID 978); conditions: LYMP2-006 lymphoblastoid cell viability, qHTS; at 92.2 µM (top of the series); also: % is scaled to controls: 0 for no effect and ±100 for the full control effect; nearly all actives have a fitted effect of over 60% in size
Outline: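 qHTS, 1536-well; 2500 cells/well, 5 hr 37 C; cpd 24 hr 37 C; CellTiter-Glo 30 min RT; luminescence. Tetraoctylammonium bromide pos. ctrl. AC50 via Hill eqn.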

[24] = Cell Viability - LYMP2-007 (AID 979); conditions: LYMP2-007 lymphoblastoid cell viability; at 92.2 µM (top of the series);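 also: cells exposed to compound for 24 h before reading; 0% = DMSO only and the negative end = 92 µM tetraoctylammonium bromide; nearly all actives have a fitted effect of over 60% in size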
[25] = Cell Viability - LYMP2-008 (AID 980); conditions: LYMP2-008 lymphoblastoid cell viability, qHTS; at 92.2 µM (top of the series)
Outline: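 Acute cytotoxicity is scored as concentration-dependent loss of cellular ATP in a human lymphoblastoid line after 24 hr treatment at 37 C. ATP is quantified by luciferase luminescence.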

[26] = Cell Viability - LYMP2-010 (AID 981); conditions: LYMP2-010 lymphoblastoid cell viability, qHTS; at 92.2 µM (top of the series)
Outline: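 Acute toxicity is scored as a concentration-dependent loss of cellular ATP in human lymphoblastoid cells after 24 hr compound exposure in complete medium. Tetraoctylammonium bromide is the positive control.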

[27] = Cell Viability - LYMP2-012 (AID 982); conditions: LYMP2-012 lymphoblastoid cell viability qHTS; at 92.2 µM (top of the series)
[28] = Cell Viability - LYMP2-014 (AID 983); conditions: LYMP2-014 lymphoblastoid cells, viability qHTS; at 92.2 µM (top of the series);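 also: plate controls were DMSO only for no effect and 92 µM tetraoctylammonium bromide for full effect; nearly all actives have a fitted effect of over 50% in size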
[29] = Cell Viability - LYMP2-016 (AID 984); conditions: LYMP2-016 lymphoblastoid cell viability, qHTS; at 92.2 µM (top of the series)
Outline: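 qHTS, 1536-well: 2500 LYMP2-016 cells/well, 5 hr 37 C, compound added, 24 hr 37 C, CellTiter-Glo 30 min RT, luminescence. Tetraoctylammonium bromide positive control. AC50 via Hill fit.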

[30] = Cell Viability - LYMP2-018 (AID 985); conditions: LYMP2-018 lymphoblastoid cells, viability (qHTS); at 92.2 µM (top of the series);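 also: plate controls were DMSO only for no effect and tetraoctylammonium bromide at 92 µM for full effect; nearly all actives have a fitted effect of over 50% in size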
Outline: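 Acute cytotoxicity is scored as a concentration-dependent drop in intracellular ATP after 24 hr exposure of the lymphoblastoid line in complete culture medium, measured by luciferase luminescence. Potency is expressed as AC50 from Hill modelling.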

[31] = Cell Viability - LYMP2-022 (AID 987); conditions: LYMP2-022 lymphoblastoid cell viability; at 92.2 µM (top of the series)
Outline: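 Acute toxicity in a human lymphoblastoid line is scored as decreased intracellular ATP after 24 hr compound treatment at 37 C. ATP is measured by CellTiter-Glo luminescence; curves are fitted with the Hill equation to give AC50.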

[32] = Cell Viability - LYMP2-024 (AID 988); conditions: LYMP2-024 lymphoblastoid cell viability; at 92.2 µM (top of the series)
[33] = Cell Viability - LYMP2-026 (AID 989); conditions: LYMP2-026 lymphoblastoid cell viability, qHTS; at 92.2 µM (top of the series); also: % is scaled to controls: 0 for no effect and ±100 for the full control effect; nearly all actives have a fitted effect of over 50% in size
Outline: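 Concentration-dependent loss of intracellular ATP in human lymphoblastoid cells after 24 hr at 37 C, quantified by luciferase luminescence. AC50 derived from standard Hill equation.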

Nc1ccc(N)c([N+](=O)[O-])c1
inactive: activity change, negative = inhibition [1] 7.81% [at 57.1 µM] | activity change, negative = cytotoxicity [2] -1.03% | activity change, negative = cytotoxicity [3] -19.3% | activity change, negative = cytotoxicity [4] -8.43% | activity change, negative = cytotoxic [5] -13.9% | viability change, negative = cytotoxic [6] -20.6% | activity change, negative = cytotoxicity [7] 6.36% | activity change, negative = cytotoxicity [8] -4.47% | activity change, negative = cytotoxic [9] -24.9% | activity change, negative = cytotoxicity [10] -8.91% | viability change, negative = cytotoxic [11] -9.25% | activity change, negative = cytotoxic [12] -20.7% | activity change, negative = cytotoxicity [13] -4.28% | activity change, negative = cytotoxicity [14] -3.56% | viability change, negative = cytotoxic [15] -0.621% | activity change, negative = cytotoxic [16] -8.25% | activity change, negative = cytotoxicity [17] -23.9% | activity change, negative = cytotoxicity [18] -10.8% | activity change, negative = cytotoxicity [19] -6.86% | activity change, negative = cytotoxicity [20] -0.727% | activity change, negative = cytotoxicity [21] -10.2% | activity change, negative = cytotoxic [22] -10.7% | activity change, negative = cytotoxicity [23] -3.22% | activity change, negative = cytotoxicity [24] -8.02% | activity change, negative = cytotoxicity [25] -10.9% | activity, negative = cytotoxicity [26] -19.3% | activity change, negative = cytotoxicity [27] -6.26% | activity change, negative = cytotoxicity [28] 2.49% | activity change, negative = cytotoxicity [29] -6.06% | activity change, negative = cytotoxicity [30] -17.4% | viability change, negative = cytotoxic [31] -20.9% | activity change, negative = cytotoxicity [32] -13.9% | activity change, negative = cytotoxic [33] 0.273%
